US20230392157

What was measured:
Assay in all cases: binding assay
thrombin = settings: purified native protein, protein details: Sigma-Aldrich Cat No. T6884, single-stranded DNA
[1] = biological target: platelet derived growth factor (PDGF) (UniProt P01127); settings: n positions abasic, alpha-HL nanopore, 1 M KCl, 10 mM Tris pH 7.5, purified recombinant protein, protein details: Biorbyt Cat No. orb80544, single-stranded DNA
streptavidin = streptavidin (UniProt P22629); settings: alpha-HL nanopore; 5 nM streptavidin, 1 uM probe; 625 mM NaCl, 100 mM HEPES, ferro/ferricyanide pH 8.0; purified native protein; protein details: Sigma Aldrich; single-stranded DNA
[2] = n positions abasic, alpha-HL nanopore, same experiment carried out, individual result not shown, variant of 5A15xA10_TBA (5A15x10A_TBA)
[3] = n positions abasic, alpha-HL nanopore, 1 M KCl, 10 mM Tris pH 7.5, variant of 5A15xA10_TBA (5A15x10A_TBA)

**Q.** Does “AAAAAAAAAAAAAAAAAAAGGTTGGTGTGGTTGG [11x19A_TBA]” bind (thrombin; [2])?
**A.** binds

**Q.** Does “AAAAAAAAAAAAAAAAAGGTTGGTGTGGTTGG [13x17A_TBA]” bind (thrombin; [2])?
**A.** binds

**Q.** Does “AAAAAAAAAAAAAAAGGTTGGTGTGGTTGG [5A15xA10_TBA (5A15x10A_TBA)]” bind (thrombin; n positions 6-20 abasic, alpha-HL nanopore current block, 1 M KCl, 10 mM Tris pH 7.5, concentration dependent)?
**A.** binds

**Q.** Does “AAAAAAAAAAAAAAAGGTTGGTGTGGTTGG [15x15A_TBA]” bind (thrombin; n positions abasic, alpha-HL nanopore, 1 M KCl, 10 mM (Ex 9: 25 mM) Tris pH 7.5, variant of 5A15xA10_TBA (5A15x10A_TBA))?
**A.** binds

**Q.** Does “AAAAAAAAAAAAAGGTTGGTGTGGTTGG [17x13A_TBA]” bind (thrombin; [3])?
**A.** binds

**Q.** Does AAAAAAAAAAAGGTTGGTGTGGTTGG [19x11A_TBA] bind (thrombin; [3])?
**A.** binds

**Q.** Does “AAAAAAAAACAAAAAAAAAAAAAAAAAAAAAGGTTGGTGTGGTTGGAAAAAAAAAAAAAAACAAAAAAAAAAAAAAACAAAAAAAAAAAAA [15x15A_TBA_3'CholTEG]” bind (thrombin; 3' cholesterol TEG, n positions abasic, alpha-HL nanopore, 100 pM probe, 100 nM thrombin, 1 M KCl, 10 mM Tris pH 7.5, variant of 15x15A_TBA)?
**A.** binds

**Q.** Does AAAAAAAAAGGTTGGTGTGGTTGG [21x9A_TBA] bind (thrombin; [2])?
**A.** binds

**Q.** Does “AAAAAAAACAGGCTACGGCACGTAGAGCATCACCATGATCCTG [17x8A_PDGF]” bind ([1]; also in 20% rabbit blood, shorter binding events than thrombin)?
**A.** binds

**Q.** Does AAAAAAAGGTTGGTGTGGTTGG [23x7A_TBA] bind (thrombin; [2])?
**A.** binds

**Q.** Does “CAGGCTACGGCACGTAGAGCATCACCATGATCCTG [25x_PDGF]” bind ([1]; concentration dependent 10 nM-1 uM, variant of 17x8A_PDGF)?
**A.** binds

**Q.** Does “CTATACTCCACTTTGCTATTTCTCGGTTCCTTCACGCGCCGATCGCAGGCTGATGAATTGTTT [strep probe 1]” bind (streptavidin)?
**A.** binds

The exact form of at least one protein or probe is not confirmed.
